Data reported in paper PMC3057995, “Potent Anti-Tumor Effect Generated by a Novel Human Papillomavirus (HPV) Antagonist Peptide Reactivating the pRb/E2F Pathway” (PLoS ONE, 2011).
These are yes or no findings as the source states them, for the method shown. For part of these data: In cells and extracts the contact can be indirect. Some entries that bind do so weakly or less than the wild type.

Protein sequences, listed by entry. Tags and fused reporters are not part of them.
UniProt P03129: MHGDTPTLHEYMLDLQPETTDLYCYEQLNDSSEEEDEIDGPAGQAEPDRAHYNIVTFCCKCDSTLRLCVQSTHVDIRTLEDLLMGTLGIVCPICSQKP
UniProt P06788: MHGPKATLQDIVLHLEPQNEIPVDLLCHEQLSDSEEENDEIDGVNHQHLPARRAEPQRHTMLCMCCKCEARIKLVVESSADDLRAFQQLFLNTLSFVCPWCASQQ

B1: Pep-7 (peptide)
peptide: SACPKGLDWCGG
modifications: C&C bridged by disulfide bonds
B2: pRb protein (protein, UniProt P06400 1-928)
chain: MPPKTPRKTAATAAAAAAEPPAPPPPPPPEEDPEQDSGPEDLPLVRLEFEETEEPDFTALCQKLKIPDHVRERAWLTWEKVSSVDGVLGGYIQKKKELWGICIFIAAVDLDEMSFTFTELQKNIEISVHKFFNLLKEIDTSTKVDNAMSRLLKKYDVLFALFSKLERTCELIYLTQPSSSISTEINSALVLKVSWITFLLAKGEVLQMEDDLVISFQLMLCVLDYFIKLSPPMLLKEPYKTAVIPINGSPRTPRRGQNRSARIAKQLENDTRIIEVLCKEHECNIDEVKNVYFKNFIPFMNSLGLVTSNGLPEVENLSKRYEEIYLKNKDLDARLFLDHDKTLQTDSIDSFETQRTPRKSNLDEEVNVIPPHTPVRTVMNTIQQLMMILNSASDQPSENLISYFNNCTVNPKESILKRVKDIGYIFKEKFAKAVGQGCVEIGSQRYKLGVRLYYRVMESMLKSEEERLSIQNFSKLLNDNIFHMSLLACALEVVMATYSRSTSQNLDSGTDLSFPWILNVLNLKAFDFYKVIESFIKAEGNLTREMIKHLERCEHRIMESLAWLSDSPLFDLIKQSKDREGPTDHLESACPLNLPLQNNHTAADMYLSPVRSPKKKGSTTRVNSTANAETQATSAFQTQKPLKSTSLSLFYKKVYRLAYLRLNTLCERLLSEHPELEHIIWTLFQHTLQNEYELMRDRHLDQIMMCSMYGICKVKNIDLKFKIIVTAYKDLPHAVQETFKRVLIKEEEYDSIIVFYNSVFMQRLKTNILQYASTRPPTLSPIPHIPRSPYKFPSSPLRIPGGNIYISPLKSPYKISEGLPTPTKMTPRSRILVSIGESFGTSEKFQKINQMVCNSDRVLKRSAEGSNPPKPLKKLRFDIEGSDEADGSKHLPGESKFQQKLAEMTSTRTRMQKQKMNDSMDTSNKEEK

What was measured:
[1] = biological target: YFP-HPV16E7 (human papillomavirus type 16) (UniProt P03129); experiment: co-IP; only the binder purified
[2] = biological target: HPV18 E7 (human papillomavirus type 18) (UniProt P06788); experiment: ELISA
[3] = biological target: His-HPV16E7 fusion protein (human papillomavirus type 16) (UniProt P03129); experiment: ELISA; competitive: pRb protein at increasing concentrations against positive phage clones for binding to HPV16E7; pair pRb and HPV16E7

Binder | binding [1] | binding [2] | binding [3]
B1 | binds | no binding (tested: 800 µM) | –
B2 | – | – | binds
